Experimental data taken from US20120231015A1, “FRAGILE X MENTAL RETARDATION PROTEIN (FMRP), COMPOSITIONS, AND METHODS RELATED THERETO” (EMORY UNIVERSITY, priority 2009, published 2012).
“Also recorded” adds a separate entry of the source. For at least one compound, name, drawing or mass did not settle the structure.

Test system: cortical SNS
Test: Metabolic labeling of cortical SNS with [35S]methionine (synaptic translation rates)
Format: cell-based, mouse
Conditions: for translation: rapamycin
Method: Cortical SNS were prepared as described previously (Muddashetty et al., 2007) and treated with the indicated antagonists or solvent for 5 min at 37° C., for some experiments followed by DHPG (100 μM) for 15 min at 37° C. as indicated, and with puromycin (2 mM) for 30 min at 37° C. Metabolic labeling was performed with 100 μCi Pro-Mix, L-(35S) in vitro cell labeling mix (GE Healthcare) for 5 min. Triplicate samples from time point 0 and 5 min were washed once in homogenization buffer, followed by lysis (100 mM Tris-HCl, pH 7.4, 150 mM NaCl, 0.5% deoxycholate, and 1% Triton X-100, supplemented with proteinase inhibitors) and TCA precipitation. 35S-incorporation levels were estimated by scintillation counting.

## CO[C@H]1C[C@@H]2CC[C@@H](C)[C@@](O)(O2)C(=O)C(=O)N2CCCC[C@H]2C(=O)O[C@H]([C@H](C)C[C@@H]2CC[C@@H](O)[C@H](OC)C2)CC(=O)[C@H](C)/C=C(\C)[C@@H](O)[C@@H](OC)C(=O)[C@H](C)C[C@H](C)/C=C/C=C/C=C/1C [rapamycin]
Fmr1 KO SNS
  translation: significantly reduced translation in KO
WT SNS
  translation: but not in WT

## COC[C@H]1OC(=O)c2coc3c2[C@@]1(C)C1=C(C3=O)[C@@H]2CCC(=O)[C@@]2(C)C[C@H]1OC(C)=O [wortmannin]
Fmr1 KO SNS, DHPG 100 μM, 15 min
  DHPG-induced translational activation after antagonist pretreatment: rescue the translational response; also recorded: can be rescued
Fmr1 KO SNS, wortmannin 100 nM
  translation rates (amino acid incorporation): could specifically rescue the excessive synaptic translation; also recorded: significantly reduced amino acid incorporation rates
WT SNS, DHPG 15 min, 100 μM
  DHPG-induced translational activation after antagonist pretreatment: abolished DHPG-induced translational increase
WT SNS, DHPG 15 min, 100 μM, listed as Wort
  DHPG-induced translational activation after antagonist pretreatment: abolish
